Laboratory results taken from article PMC7861375.
Results are given in words; binding and its absence hold for the method and conditions named. Some binding calls cover weakened binding; strength is not graded here.

Key:
Experiment in all cases: SEC + other: negative-stain electron microscopy; TcA and TcdB2-TccC3 mixed in a 2:1 mole ratio (50 mM Tris pH 8.0, 100 mM NaCl, 5% glycerol), co-incubated at 4°C overnight, Superose 6 gel filtration; fractions by SDS-PAGE, fraction #14 by negative stain EM; both purified
[1] = target: TcdA1^W14-K1738S (Photorhabdus luminescens W14) (UniProt Q9RN43)
[2] = target: TcdA1^W14-W1721S (Photorhabdus luminescens W14) (UniProt Q9RN43)
[3] = target: TcdA1^W14-W1721S/K1738S (Photorhabdus luminescens W14) (UniProt Q9RN43)

Measured: binding

TcdB2-TccC3 fusion protein (P. luminescens W14) (from UniProt Q8GF99 1-1474; Q8GF97 1-960)
binds: all assays above
